Values quoted from earlier work as cited in patent US6951877B2, “Materials and methods for treating hypercholesterolemia” (ARYx Therapeutics, Inc., priority 2002, dated 2005).
At least one compound was matched to its structure with a doubt left.

Key:
[1] = test system: patients with established CAD; conditions: over a 5-year period
[2] = test system: patients with established CAD; conditions: mean 5.4-year follow-up period

SMILES	reduction of risk for fatal coronary events or nonfatal MI [1]	reduction in all-cause mortality risk [2]	reduction in coronary mortality risk [2]
CC[C@H](C)C(=O)O[C@H]1C[C@H](O)C=C2C=C[C@H](C)[C@H](CC[C@@H](O)C[C@@H](O)CC(=O)O)[C@H]21 [pravastatin]	24%	–	–
CCC(C)(C)C(=O)O[C@H]1C[C@@H](C)C=C2C=C[C@H](C)[C@H](CC[C@@H]3C[C@@H](O)CC(=O)O3)[C@H]21 [simvastatin]	–	30%	42%
